Article PMC6692618
Results are given in words; binding and its absence hold for the method and conditions named. In cells and extracts the contact can be indirect. Some results given as binding are weak or reduced against the parent protein; the word gives no strength.

Amino acid sequences for entries named in this document (tags omitted).
UniProt P49407: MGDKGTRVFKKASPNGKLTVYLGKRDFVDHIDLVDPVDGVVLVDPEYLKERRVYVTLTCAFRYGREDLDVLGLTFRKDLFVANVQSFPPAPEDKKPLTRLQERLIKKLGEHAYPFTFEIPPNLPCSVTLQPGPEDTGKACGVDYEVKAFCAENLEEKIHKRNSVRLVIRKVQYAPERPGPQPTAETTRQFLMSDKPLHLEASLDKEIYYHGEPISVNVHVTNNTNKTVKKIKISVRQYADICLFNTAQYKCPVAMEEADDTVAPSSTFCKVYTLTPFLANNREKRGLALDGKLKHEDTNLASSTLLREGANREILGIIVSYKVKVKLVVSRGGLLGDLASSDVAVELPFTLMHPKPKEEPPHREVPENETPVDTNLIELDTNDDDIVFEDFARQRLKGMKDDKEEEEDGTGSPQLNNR
UniProt Q13535: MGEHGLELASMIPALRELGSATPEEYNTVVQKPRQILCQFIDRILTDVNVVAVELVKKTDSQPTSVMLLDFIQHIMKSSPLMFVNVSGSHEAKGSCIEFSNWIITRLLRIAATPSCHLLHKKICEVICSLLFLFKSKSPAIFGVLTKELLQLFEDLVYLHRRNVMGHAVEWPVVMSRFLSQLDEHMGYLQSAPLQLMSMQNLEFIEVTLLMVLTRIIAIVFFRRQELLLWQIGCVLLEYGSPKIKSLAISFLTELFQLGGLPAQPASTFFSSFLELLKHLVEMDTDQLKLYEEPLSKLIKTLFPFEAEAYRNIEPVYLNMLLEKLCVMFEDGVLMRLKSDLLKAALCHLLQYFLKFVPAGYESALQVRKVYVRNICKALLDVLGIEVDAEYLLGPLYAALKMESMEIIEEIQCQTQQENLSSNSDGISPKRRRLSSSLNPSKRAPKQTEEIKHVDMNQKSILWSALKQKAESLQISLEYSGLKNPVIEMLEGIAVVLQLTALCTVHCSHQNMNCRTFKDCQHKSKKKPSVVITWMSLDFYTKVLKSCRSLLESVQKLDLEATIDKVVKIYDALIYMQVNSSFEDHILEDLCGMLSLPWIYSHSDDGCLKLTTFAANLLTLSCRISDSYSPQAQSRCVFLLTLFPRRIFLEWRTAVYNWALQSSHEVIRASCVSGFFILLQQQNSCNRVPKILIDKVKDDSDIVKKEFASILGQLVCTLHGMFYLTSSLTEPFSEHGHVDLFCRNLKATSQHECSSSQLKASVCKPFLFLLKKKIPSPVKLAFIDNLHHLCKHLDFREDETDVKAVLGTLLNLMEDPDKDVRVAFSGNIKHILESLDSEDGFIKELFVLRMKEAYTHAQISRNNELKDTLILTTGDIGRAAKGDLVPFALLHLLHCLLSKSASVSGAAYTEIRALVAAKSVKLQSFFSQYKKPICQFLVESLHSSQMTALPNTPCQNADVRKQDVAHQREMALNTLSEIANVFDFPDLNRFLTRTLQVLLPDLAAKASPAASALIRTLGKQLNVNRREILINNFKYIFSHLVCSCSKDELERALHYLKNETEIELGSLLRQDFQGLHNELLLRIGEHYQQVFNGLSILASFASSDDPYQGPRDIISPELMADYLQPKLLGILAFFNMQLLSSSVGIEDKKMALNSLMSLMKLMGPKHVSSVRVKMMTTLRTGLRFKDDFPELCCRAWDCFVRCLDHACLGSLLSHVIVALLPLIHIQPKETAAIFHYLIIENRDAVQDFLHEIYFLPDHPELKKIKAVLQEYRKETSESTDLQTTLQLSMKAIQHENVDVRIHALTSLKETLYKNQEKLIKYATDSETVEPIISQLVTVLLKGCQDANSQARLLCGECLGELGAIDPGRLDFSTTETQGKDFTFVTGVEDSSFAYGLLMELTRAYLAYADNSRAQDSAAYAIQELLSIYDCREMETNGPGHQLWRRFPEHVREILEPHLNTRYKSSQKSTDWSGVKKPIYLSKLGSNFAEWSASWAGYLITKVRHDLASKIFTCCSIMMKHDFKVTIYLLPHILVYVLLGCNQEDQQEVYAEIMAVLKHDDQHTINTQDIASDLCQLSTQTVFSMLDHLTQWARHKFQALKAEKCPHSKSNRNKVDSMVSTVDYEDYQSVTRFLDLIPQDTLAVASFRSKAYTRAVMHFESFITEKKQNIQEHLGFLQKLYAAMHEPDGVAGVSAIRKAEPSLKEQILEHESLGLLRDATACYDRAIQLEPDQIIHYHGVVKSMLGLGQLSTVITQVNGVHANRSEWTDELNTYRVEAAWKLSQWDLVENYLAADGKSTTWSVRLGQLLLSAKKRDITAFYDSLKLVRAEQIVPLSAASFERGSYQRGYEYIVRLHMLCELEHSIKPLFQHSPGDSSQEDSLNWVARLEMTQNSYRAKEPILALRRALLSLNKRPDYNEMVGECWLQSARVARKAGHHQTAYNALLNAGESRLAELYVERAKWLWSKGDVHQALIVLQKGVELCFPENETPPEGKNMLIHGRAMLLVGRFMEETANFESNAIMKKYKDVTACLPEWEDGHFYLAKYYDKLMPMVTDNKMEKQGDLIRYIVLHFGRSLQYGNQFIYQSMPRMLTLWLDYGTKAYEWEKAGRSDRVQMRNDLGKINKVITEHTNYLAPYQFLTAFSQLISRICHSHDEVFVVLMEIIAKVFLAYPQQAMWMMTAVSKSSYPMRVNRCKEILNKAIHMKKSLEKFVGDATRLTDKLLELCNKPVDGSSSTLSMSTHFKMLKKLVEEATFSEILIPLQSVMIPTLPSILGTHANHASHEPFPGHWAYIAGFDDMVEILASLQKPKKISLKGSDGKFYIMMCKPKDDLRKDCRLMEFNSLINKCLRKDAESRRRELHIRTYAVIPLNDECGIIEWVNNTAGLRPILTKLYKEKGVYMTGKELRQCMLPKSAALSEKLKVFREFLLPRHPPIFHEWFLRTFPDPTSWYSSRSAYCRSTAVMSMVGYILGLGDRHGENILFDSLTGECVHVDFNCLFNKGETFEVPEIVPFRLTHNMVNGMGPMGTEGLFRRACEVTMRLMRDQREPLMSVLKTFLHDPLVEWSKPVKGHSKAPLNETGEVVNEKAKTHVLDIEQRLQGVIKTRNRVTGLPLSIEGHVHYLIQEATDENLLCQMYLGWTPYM

Target: β-arrestin1 (human (endogenous in H520 and H1299)) (UniProt P49407)
Experiment: co-IP; RIPA lysates of H520 and H1299 cells, with and without radiation; anti-β-arrestin1 antibody (Santa Crus) with protein A and G sepharose beads overnight; three washes; western blotting

In the case of ATR (from UniProt Q13535 1-2644), the binding is reported as “binds”.
